# Article PMC12005277
# Amino acid sequences for entries named in this document (tags omitted).
# UniProt Q9BV68: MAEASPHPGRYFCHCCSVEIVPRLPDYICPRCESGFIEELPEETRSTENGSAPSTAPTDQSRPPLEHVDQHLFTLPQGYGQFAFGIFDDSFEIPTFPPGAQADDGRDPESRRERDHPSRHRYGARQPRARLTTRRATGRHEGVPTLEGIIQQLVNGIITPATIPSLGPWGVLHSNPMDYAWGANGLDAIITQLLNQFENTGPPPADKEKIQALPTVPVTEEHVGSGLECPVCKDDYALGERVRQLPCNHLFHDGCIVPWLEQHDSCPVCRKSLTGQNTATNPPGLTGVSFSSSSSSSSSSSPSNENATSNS
# UniProt P46379: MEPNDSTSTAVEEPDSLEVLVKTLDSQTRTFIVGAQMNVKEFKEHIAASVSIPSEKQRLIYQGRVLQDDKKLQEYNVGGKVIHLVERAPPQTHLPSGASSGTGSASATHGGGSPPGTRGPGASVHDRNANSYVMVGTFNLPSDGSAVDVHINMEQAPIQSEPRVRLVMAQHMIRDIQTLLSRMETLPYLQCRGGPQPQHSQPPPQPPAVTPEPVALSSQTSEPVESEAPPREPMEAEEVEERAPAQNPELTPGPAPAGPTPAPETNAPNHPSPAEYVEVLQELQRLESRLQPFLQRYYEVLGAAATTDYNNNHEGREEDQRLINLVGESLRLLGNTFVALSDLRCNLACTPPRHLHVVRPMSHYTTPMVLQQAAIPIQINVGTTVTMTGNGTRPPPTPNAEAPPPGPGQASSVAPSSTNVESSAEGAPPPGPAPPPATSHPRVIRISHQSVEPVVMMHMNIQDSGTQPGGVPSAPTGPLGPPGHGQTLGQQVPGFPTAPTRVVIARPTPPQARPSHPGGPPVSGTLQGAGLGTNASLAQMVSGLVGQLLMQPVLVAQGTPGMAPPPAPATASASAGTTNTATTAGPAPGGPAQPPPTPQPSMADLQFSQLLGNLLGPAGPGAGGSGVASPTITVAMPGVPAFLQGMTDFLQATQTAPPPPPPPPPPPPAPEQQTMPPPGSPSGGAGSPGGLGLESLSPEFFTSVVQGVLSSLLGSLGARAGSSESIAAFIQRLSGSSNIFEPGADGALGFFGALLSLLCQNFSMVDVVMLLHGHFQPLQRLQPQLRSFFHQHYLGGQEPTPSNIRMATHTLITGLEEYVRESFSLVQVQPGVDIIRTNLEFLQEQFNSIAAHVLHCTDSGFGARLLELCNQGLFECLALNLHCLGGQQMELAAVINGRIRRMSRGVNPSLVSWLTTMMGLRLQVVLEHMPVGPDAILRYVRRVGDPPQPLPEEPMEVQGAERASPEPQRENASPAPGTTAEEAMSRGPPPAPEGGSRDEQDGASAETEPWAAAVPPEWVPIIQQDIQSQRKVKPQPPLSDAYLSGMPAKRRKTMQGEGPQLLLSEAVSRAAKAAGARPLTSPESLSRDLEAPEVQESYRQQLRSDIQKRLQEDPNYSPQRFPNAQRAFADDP
# UniProt Q9UMX0: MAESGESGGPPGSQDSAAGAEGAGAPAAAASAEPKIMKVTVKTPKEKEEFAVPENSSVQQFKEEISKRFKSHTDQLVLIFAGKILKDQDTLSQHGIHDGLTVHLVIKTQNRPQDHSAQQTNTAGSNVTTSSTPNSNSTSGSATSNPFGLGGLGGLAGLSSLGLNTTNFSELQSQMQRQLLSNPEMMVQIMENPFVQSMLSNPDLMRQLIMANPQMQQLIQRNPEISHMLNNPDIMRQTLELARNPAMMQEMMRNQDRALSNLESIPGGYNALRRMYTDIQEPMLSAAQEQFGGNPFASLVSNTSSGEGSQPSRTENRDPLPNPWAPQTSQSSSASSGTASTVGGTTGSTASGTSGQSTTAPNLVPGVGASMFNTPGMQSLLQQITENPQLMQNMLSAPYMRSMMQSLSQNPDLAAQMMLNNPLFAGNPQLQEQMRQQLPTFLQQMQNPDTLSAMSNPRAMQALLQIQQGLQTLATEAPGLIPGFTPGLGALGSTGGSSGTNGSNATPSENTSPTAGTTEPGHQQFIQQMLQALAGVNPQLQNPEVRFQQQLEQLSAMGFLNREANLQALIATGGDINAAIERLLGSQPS
# Results are given in words; binding and its absence hold for the method and conditions named. Binding seen in cells or lysates may run through a third protein. Some binding calls cover weakened binding; strength is not graded here.
# Target: Myc-RNF126 (wild type) (human) (UniProt Q9BV68)
# Assay: co-IP; anti-Myc agarose for Myc-UBQLN1 or Myc-RNF126; HEK293T cells (wild type or BAG6 knockout) treated with 20 μM MG132 for 2 h; 50 mM Tris-HCl, 150 mM NaCl, 2 mM MgCl2, 0.05% digitonin, 4 °C, 2 h
row,binding,Substance
1,binds,BAG6 (from UniProt P46379 1-1132)
2,binds,ubiquilin 1 (UBQLN1) in HEK293T lysate (from UniProt Q9UMX0 1-589)
